Laboratory results published in article PMC2901200.
Results are given in words; binding and its absence hold for the method and conditions named. Binding seen in cells or lysates may run through a third protein. Some entries that bind do so weakly or less than the wild type.

Amino acid sequences for entries named in this document (tags omitted). A change or cut given only in a name is not applied to a line headed by its entry. Chains listed by the source or under a name are the forms on record and can include a tag or linker. Residues count along the entry.
UniProt Q2MHE5: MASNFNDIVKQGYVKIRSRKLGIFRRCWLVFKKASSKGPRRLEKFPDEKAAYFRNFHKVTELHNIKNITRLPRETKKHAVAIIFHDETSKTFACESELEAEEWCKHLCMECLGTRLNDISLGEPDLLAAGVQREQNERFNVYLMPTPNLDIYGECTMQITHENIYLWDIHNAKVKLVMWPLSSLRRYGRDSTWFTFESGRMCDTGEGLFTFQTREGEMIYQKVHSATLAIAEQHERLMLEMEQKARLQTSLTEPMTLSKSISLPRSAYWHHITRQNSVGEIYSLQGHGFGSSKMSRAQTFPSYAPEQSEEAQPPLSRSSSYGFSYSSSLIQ
UniProt Q6PKX4: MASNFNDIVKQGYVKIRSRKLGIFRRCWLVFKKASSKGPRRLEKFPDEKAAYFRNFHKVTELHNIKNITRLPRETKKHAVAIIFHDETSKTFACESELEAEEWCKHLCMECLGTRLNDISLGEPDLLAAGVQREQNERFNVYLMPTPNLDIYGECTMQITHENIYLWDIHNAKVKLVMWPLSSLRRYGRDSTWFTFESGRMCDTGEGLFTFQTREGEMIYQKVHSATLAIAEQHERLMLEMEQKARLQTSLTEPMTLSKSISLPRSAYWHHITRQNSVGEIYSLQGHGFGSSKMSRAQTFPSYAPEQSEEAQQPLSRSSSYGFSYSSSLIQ
UniProt Q6VNS1, residues 32-825: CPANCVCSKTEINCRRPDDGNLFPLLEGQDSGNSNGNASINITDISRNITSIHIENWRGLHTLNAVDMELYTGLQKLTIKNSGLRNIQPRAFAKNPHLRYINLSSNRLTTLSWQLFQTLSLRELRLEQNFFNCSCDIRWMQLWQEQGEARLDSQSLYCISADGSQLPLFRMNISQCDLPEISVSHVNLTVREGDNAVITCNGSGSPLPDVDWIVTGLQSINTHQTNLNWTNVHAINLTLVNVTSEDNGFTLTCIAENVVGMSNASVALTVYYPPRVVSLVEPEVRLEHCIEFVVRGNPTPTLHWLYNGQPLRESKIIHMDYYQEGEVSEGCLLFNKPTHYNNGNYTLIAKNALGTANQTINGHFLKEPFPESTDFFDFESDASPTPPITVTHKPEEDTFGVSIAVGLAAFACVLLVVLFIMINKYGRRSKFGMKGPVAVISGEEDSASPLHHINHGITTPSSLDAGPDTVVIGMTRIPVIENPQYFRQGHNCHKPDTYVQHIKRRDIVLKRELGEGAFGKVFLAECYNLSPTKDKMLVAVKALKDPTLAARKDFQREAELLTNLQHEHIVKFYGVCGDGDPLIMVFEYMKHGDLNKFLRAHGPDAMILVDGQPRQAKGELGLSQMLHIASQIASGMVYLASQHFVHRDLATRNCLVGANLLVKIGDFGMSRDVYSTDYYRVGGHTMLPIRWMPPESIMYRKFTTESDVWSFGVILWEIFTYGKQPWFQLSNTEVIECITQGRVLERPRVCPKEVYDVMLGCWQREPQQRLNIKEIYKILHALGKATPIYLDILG
V5-tagged TrkC receptor, wild type (Q16288-3, form named): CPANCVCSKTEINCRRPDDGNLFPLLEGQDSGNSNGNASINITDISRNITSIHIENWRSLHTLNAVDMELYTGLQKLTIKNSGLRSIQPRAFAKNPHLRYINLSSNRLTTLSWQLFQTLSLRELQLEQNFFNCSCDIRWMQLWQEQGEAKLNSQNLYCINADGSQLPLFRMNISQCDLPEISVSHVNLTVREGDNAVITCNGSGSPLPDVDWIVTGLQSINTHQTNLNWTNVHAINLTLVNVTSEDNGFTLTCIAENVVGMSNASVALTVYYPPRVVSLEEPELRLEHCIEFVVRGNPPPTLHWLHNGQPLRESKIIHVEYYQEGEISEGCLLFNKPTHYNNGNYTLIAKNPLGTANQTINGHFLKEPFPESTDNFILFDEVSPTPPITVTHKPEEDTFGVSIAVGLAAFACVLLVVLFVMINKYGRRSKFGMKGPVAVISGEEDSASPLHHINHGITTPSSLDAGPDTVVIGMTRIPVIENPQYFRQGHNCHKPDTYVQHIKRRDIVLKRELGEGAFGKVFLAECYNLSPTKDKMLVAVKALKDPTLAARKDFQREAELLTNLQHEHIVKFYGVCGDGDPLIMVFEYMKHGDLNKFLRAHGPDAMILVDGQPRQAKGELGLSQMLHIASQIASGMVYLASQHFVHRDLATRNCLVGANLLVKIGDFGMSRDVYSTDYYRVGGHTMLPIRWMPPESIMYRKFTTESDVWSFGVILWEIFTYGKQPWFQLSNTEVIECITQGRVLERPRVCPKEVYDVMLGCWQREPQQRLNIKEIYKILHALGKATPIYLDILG

Experiments:
[1] = molecular target: Dok6, endogenous in E18.5 mouse brain and cortex neurons (mouse (endogenous in E18.5 ICR mouse brain)) (UniProt Q2MHE5); test: co-IP; homogenates of E18.5 ICR mouse brains, precleared with rabbit IgG; immunoprecipitated with anti-Dok6 or IgG, protein A-agarose, 4°C; anti-TrkC blot
[2] = molecular target: Dok6, endogenous in E18.5 mouse brain and cortex neurons (mouse (endogenous in E18.5 ICR mouse brain)) (UniProt Q2MHE5); test: co-IP; E18.5 mouse cortex neurons cultured in empty DMEM for 24 h, then treated with 100 ng/ml NT-3 for 10 min; lysates immunoprecipitated with anti-Dok6, anti-TrkC blot
[3] = molecular target: Dok6, endogenous in E18.5 mouse brain and cortex neurons (mouse (endogenous in E18.5 ICR mouse brain)) (UniProt Q2MHE5); test: co-IP; E18.5 mouse cortex neurons cultured in empty DMEM for 24 h, without NT-3; lysates immunoprecipitated with anti-Dok6, anti-TrkC blot
Flag-tagged Dok6 (human) = Flag-tagged Dok6 (human) (UniProt Q6PKX4); test: co-IP; HEK293 cotransfected with Flag-Dok6 and V5-TrkC, treated with or without 100 ng/ml NT-3 for 10 min; anti-Flag immunoprecipitation, anti-V5 blot

| binding [1] | binding [2] | binding (Flag-tagged Dok6 (human)) | Substance | binding [3] |
| --- | --- | --- | --- | --- |
| binds | binds |  | TrkC receptor, endogenous in E18.5 mouse brain and cortex neurons (from UniProt Q6VNS1 32-825) | no binding (condition: without NT-3 stimulation) |
|  |  | binds | V5-tagged TrkC receptor, wild type (from UniProt Q16288-3 32-825) |  |
